Results are given in words; binding and its absence hold for the method and conditions named. Some binding calls cover weakened binding; strength is not graded here.
Target: high molecular weight kininogen (UniProt P01042)
Assay: Biacore

The chains behind the UniProt entries cited, without tags or fusion partners. Where a name states a change or a piece, a line headed by the entry shows the natural chain unless it says otherwise. Residues count along the entry.
UniProt P01042, residues 19-644: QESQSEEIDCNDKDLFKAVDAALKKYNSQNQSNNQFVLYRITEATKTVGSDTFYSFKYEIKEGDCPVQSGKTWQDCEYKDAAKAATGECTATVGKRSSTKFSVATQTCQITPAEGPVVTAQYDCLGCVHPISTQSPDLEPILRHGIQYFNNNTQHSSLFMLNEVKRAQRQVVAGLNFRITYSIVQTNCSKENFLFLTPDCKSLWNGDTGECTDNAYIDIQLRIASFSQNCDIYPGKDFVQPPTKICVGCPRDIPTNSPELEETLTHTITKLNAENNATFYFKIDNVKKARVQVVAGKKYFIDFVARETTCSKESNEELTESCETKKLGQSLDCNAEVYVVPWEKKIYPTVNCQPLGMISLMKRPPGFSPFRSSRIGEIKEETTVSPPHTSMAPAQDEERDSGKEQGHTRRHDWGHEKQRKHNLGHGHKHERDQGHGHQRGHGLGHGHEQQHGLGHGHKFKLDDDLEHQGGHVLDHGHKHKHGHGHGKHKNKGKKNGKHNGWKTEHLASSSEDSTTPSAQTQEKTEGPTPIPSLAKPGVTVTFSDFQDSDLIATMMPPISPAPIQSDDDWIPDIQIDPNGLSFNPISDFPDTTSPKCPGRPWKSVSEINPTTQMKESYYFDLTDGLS
UniProt P03952: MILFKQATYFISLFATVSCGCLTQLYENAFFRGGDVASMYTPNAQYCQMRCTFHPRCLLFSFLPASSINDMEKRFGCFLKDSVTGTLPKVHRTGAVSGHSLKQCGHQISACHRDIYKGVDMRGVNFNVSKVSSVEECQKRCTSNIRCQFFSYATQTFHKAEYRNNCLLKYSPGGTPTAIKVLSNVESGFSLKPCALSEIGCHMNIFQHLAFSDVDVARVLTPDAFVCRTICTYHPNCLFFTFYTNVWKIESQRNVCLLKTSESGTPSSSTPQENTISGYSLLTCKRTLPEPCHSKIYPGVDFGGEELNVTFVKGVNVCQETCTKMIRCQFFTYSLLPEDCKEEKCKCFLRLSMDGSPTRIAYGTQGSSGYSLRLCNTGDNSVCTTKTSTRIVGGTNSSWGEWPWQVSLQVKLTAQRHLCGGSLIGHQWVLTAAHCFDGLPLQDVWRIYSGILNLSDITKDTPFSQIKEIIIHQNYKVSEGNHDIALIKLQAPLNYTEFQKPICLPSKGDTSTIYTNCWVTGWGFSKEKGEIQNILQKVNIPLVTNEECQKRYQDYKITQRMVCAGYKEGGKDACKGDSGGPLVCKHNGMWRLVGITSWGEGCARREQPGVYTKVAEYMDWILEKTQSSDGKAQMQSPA

human plasma kallikrein (from UniProt P03952 20-390; P03952 391-638) (enzyme)
binding: binds
